Data as given in the supplement of paper PMC12067093, “Discovery and optimisation of a covalent ligand for TRIM25 and its application to targeted protein ubiquitination” (Chemical Science, 2025).
The list shows a part of the results.

Compound: CC1Cc2ccccc2N1C(=O)C1CCCN(C1)C(=O)CCl (mixture of isomers) [TRIM25 ligand 11 (diastereomer mixture)]
Assay: probe-labelled cysteine peptide fold change vs DMSO (competition) (log2 fold change); higher = less target engagement (more negative = stronger competition)
Settings: THP-1, incubation time: 4 h
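Also: competitive chemoproteomic profiling in live THP-1 cells with an iodoacetamide desthiobiotin (IA-DTB) probe, comparing probe-labelled peptide intensities in compound-treated cells against DMSO-treated controls.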

Target | probe-labelled cysteine peptide fold change (10 µM) | probe-labelled cysteine peptide fold change (50 µM)
PYGL_P06737_446_RINMAHLCIVGSHAVNGVAK (UniProt P06737) | -0.16 | 0.02
RAB7A_P51149_83_GADCCVLVFDVTAPNTFK (UniProt P51149) | 0.108 | 0.0904
QDPR_P09417_161_GAVHQLCQSLAGK (UniProt P09417) | -0.0291 | 0.0978
QSOX1_O00391_101+110_AWRPALYLAALDCAEETNSAVCR (UniProt O00391) | 0.0972 | -0.0278
PWWP2A_Q96N64_233_CEANGAVPDDPSPVPHPELSLAESLWTSKPPPLFHEGAPYPPPLFIR (UniProt Q96N64) | -0.28 | -0.21
PXN_P49023_443_TWHPEHFFCAQCGAFFGPEGFHEK (UniProt P49023) | 0.143 | 0.113
PUS7L_Q9H0K6_561_VVQGDLVCLDEDIDDENFPNSK (UniProt Q9H0K6) | 0.133 | 0.0488
RAD50_Q92878_633_LFDVCGSQDFESDLDRLK (UniProt Q92878) | 0.192 | 0.109
RABGEF1_Q9UJ41_359_DLSIEEQSECAQDFYHNVAER (UniProt Q9UJ41) | -0.161 | -0.289
RAB23_Q9ULC3_130_IDLLDDSCIK (UniProt Q9ULC3) | 0.234 | 0.173
RAB3GAP1_Q15042_873_FVSCLLEQPEVLVTGAGR (UniProt Q15042) | 0.274 | 0.33
PWP2_Q15269_508_LLDVLSGHEGPISGLCFNPMK (UniProt Q15269) | 0.11 | 0.0145
RAB35_Q15286_110_WLHEINQNCDDVCR (UniProt Q15286) | -0.00601 | -0.0724
RABGAP1L_Q5R372_330_CFGMLLSPGR (UniProt Q5R372) | -0.0577 | 0.23
PXN_P49023_564_KFHPEHFVCAFCLK (UniProt P49023) | -0.216 | -0.136
RAB8B_Q92930_123_CDMNDK (UniProt Q92930) | 0.145 | -0.0101
RACK1_P63244_207_TNHIGHTGYLNTVTVSPDGSLCASGGKDGQAMLWDLNEGK (UniProt P63244) | -0.484 | -0.388
PWP1_Q13610_154_DTEQYEREDFLIKPSDNLIVCGR (UniProt Q13610) | -0.117 | -0.216
RAB36_O95755_247_DLLSGAACEQAEADAVHLAR (UniProt O95755) | -0.392 | 0.0759
RAB7B_Q96AH8_142_KVPQEVAQGWCR (UniProt Q96AH8) | -0.0176 | 0.142
PYGL_P06737_446_INMAHLCIVGSHAVNGVAK (UniProt P06737) | -0.047 | -0.0335

A section taken from the entries so far:
Target | probe-labelled cysteine peptide fold change (10 µM) | probe-labelled cysteine peptide fold change (50 µM)
RAD50_Q92878_633_LFDVCGSQDFESDLDRLK (UniProt Q92878) | 0.192 | 0.109
RABGEF1_Q9UJ41_359_DLSIEEQSECAQDFYHNVAER (UniProt Q9UJ41) | -0.161 | -0.289

Next part:

Target | probe-labelled cysteine peptide fold change (10 µM) | probe-labelled cysteine peptide fold change (50 µM)
PXN_P49023_108_TSSVSNPQDSVGSPCSR (UniProt P49023) | -0.146 | -0.228
RAB3D_O95716_137_CDLEDERVVPAEDGRR (UniProt O95716) | -0.117 | 0.0593
RABIF_P47224_97_FLVCADCEIGPIGWHCLDDK (UniProt P47224) | 0.176 | -0.00218
QTRT1_Q9BXR0_319_DFGPIDPECTCPTCQK (UniProt Q9BXR0) | 0.000815 | -0.244
PYCR3_Q53H96_129_VLPNLPCVVQEGAIVMAR (UniProt Q53H96) | 0.0485 | 0.0926
QRSL1_Q9H0R6_203_NPAAHCGLVGFKPSYGLVSR (UniProt Q9H0R6) | -0.00717 | -0.0802
QDPR_P09417_85_VDAILCVAGGWAGGNAK (UniProt P09417) | 0.0559 | -0.0321
RAD50_Q92878_325_KLVDCHR (UniProt Q92878) | -0.0865 | -0.0476
PURA_Q00577_272_FGHTFCK (UniProt Q00577) | -0.114 | -0.0787
RAB7A_P51149_83+84_GADCCVLVFDVTAPNTFK (UniProt P51149) | 0.123 | -0.0351
R3HDM4_Q96D70_29_LLPLPSCLPALASSQVK (UniProt Q96D70) | 0.0386 | -0.181
PUS7L_Q9H0K6_207_ELCHLVSEEEAFDFFK (UniProt Q9H0K6) | 0.208 | 0.0692
PYGL_P06737_581_QLLNCLHVITMYNR (UniProt P06737) | 0.0137 | 0.135
PXK_Q7Z7A4_204_LLPSCLHPYIYR (UniProt Q7Z7A4) | 0.145 | 0.0873
RAB18_Q9NP72_110_LDNWLNELETYCTR (UniProt Q9NP72) | 0.0203 | 0.149
RAB35_Q15286_110+114_WLHEINQNCDDVCR (UniProt Q15286) | 0.171 | 0.198
PXN_P49023_387_TWHPEHFVCTHCQEEIGSR (UniProt P49023) | -0.213 | -0.113
QSOX1_O00391_393_VNWIGCQGSEPHFR (UniProt O00391) | 0.112 | 0.186
QSOX2_Q6ZRP7_476_YVHTFFGCK (UniProt Q6ZRP7) | 0.00403 | 0.0233
RAB4A_P20338_124_MLASQNIVIILCGNKK (UniProt P20338) | -0.176 | 0.00921
RACK1_P63244_240_HLYTLDGGDIINALCFSPNR (UniProt P63244) | 0.0157 | 0.0697

Single records (already shown). Order of values: probe-labelled cysteine peptide fold change (10 µM)	probe-labelled cysteine peptide fold change (50 µM)
RAB7A_P51149_83+84_GADCCVLVFDVTAPNTFK (UniProt P51149) is listed with 0.123	-0.0351
RAB4A_P20338_124_MLASQNIVIILCGNKK (UniProt P20338) is listed with -0.176	0.00921
QSOX1_O00391_393_VNWIGCQGSEPHFR (UniProt O00391) is listed with 0.112	0.186
PURA_Q00577_272_FGHTFCK (UniProt Q00577) is listed with -0.114	-0.0787

The listing continues.

Target | probe-labelled cysteine peptide fold change (10 µM) | probe-labelled cysteine peptide fold change (50 µM)
QTRT2_Q9H974_263_LISGVSRPDEVLECIER (UniProt Q9H974) | -0.111 | 0.0558
RABEPK_Q7Z6M1_29_ATWYTLTVPGDSPCAR (UniProt Q7Z6M1) | 0.0173 | -0.17
RAB9B_Q9NP90_182_QVLAVEEQLEHCMLGHTIDLNSGSK (UniProt Q9NP90) | -0.018 | -0.054
PUM2_Q8TB72_813_GHVLPLALQMYGCR (UniProt Q8TB72) | -0.125 | 0.0423
RAB24_Q969Q5_87_AAIVCYDLTDSSSFER (UniProt Q969Q5) | 0.165 | 0.158
RAC2_P15153_178_AVLCPQPTR (UniProt P15153) | -0.119 | -0.058
PXK_Q7Z7A4_112_GLQNYLNVITTNHILSNCELVKK (UniProt Q7Z7A4) | -0.189 | -0.0262
RABGAP1L_Q5R372_665_NNFEDLHCK (UniProt Q5R372) | 0.206 | 0.214
PYGB_P11216_808_NIACSGK (UniProt P11216) | -0.111 | 0.0888
PWP2_Q15269_612_AFTALCYSADGHSILAGGMSK (UniProt Q15269) | 0.188 | 0.256
RAB21_Q9UL25_126+128_MLGNEICLCIVGNK (UniProt Q9UL25) | -0.135 | 0.151
RAB35_Q15286_114_WLHEINQNCDDVCR (UniProt Q15286) | -0.0528 | -0.0754
RAB7A_P51149_84_GADCCVLVFDVTAPNTFK (UniProt P51149) | 0.113 | 0.283
PURB_Q96QR8_238_FFFDVGCNK (UniProt Q96QR8) | -0.0401 | 0.111
QTRT1_Q9BXR0_70_ICLGNTYHLGLRPGPELIQK (UniProt Q9BXR0) | -0.0515 | 0.0556
PXN_P49023_561_FHPEHFVCAFCLK (UniProt P49023) | -0.0786 | 0.0176
PUM1_Q14671_980_CIECVQPQSLQFIIDAFK (UniProt Q14671) | 0.0374 | 0.226
RAB3GAP2_Q9H2M9_391+395_RHGESICLSPCNTLAAVTDDFGR (UniProt Q9H2M9) | 0.0846 | 0.0437
RABL3_Q5HYI8_180_TAFLAEDFNPEEINLDCTNPR (UniProt Q5HYI8) | -0.125 | -0.104
PYCR3_Q53H96_49_NLCHFQALGCR (UniProt Q53H96) | -0.0532 | -0.0742
RAB29_O14966_120_LTLPNGEPVPCLLLANK (UniProt O14966) | -0.0261 | 0.0593

Target | probe-labelled cysteine peptide fold change (10 µM) | probe-labelled cysteine peptide fold change (50 µM)
PXN_P49023_505+523_ECFTPFVNGSFFEHDGQPYCEVHYHER (UniProt P49023) | 0.156 | 0.019
PYCR3_Q53H96_235_SDVCTPGGTTIYGLHALEQGGLR (UniProt Q53H96) | 0.0407 | -0.163
RABGGTA_Q92696_186_SCLLPQLHPQPDSGPQGR (UniProt Q92696) | 0.0398 | -0.112
RAB7B_Q96AH8_142_VPQEVAQGWCR (UniProt Q96AH8) | 0.172 | -0.0601
RABEPK_Q7Z6M1_243_LNPTGAAPAGCAAHSAVAMGK (UniProt Q7Z6M1) | 0.107 | 0.0284
PWP2_Q15269_647_RFEISCNLSLDAMEEFLNR (UniProt Q15269) | 0.2 | 0.263
RAD21_O60216_585_TGAESISLLELCR (UniProt O60216) | 0.0789 | -0.0716
RAD21_O60216_35_AHVFECNLESSVESIISPK (UniProt O60216) | 0.0257 | 0.111
RABEPK_Q7Z6M1_36_VGHSCSYLPPVGNAK (UniProt Q7Z6M1) | -0.135 | -0.0563
RACGAP1_Q9H0H5_327_VVSHPECR (UniProt Q9H0H5) | 0.14 | 0.0172
RAB14_P61106_40_KFMADCPHTIGVEFGTR (UniProt P61106) | -0.029 | -0.0399
RAB3IL1_Q8TBN0_29_STDPCQGHR (UniProt Q8TBN0) | -0.119 | -0.315
QPRT_Q15274_111_CSGIASAAAAAVEAAR (UniProt Q15274) | -0.00534 | 0.037
PYCR1_P32322_120_CMTNTPVVVR (UniProt P32322) | 0.0536 | 0.0496
PYURF_Q96I23_60_KTEEPPRDFDPALLEFLVCPLSK (UniProt Q96I23) | -0.332 | -0.352
RAC1_P63000_105_HHCPNTPIILVGTK (UniProt P63000) | -0.0211 | -0.12
RAD50_Q92878_157_AVLNNVIFCHQEDSNWPLSEGK (UniProt Q92878) | -0.0153 | 0.196
QARS_P47897_433+445+456_WCIYPTYDYTHCLCDSIEHITHSLCTK (UniProt P47897) | 0.248 | 0.0569
RACGAP1_Q9H0H5_419_VDDIHAICSLLK (UniProt Q9H0H5) | -0.0954 | 0.00119
